Experimental data: PubChem BioAssay AID1259424 (University of Nebraska Medical Center, 2018)
Assay: 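Seek colon cancer survival genes behaving like KSR1, using a six-gene signature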 (primary screen). Cells: human HCT116 colon cancer cells. Reagents: siRNA pool against human genes, 50 nM. Detection: 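Log2 levels of six mRNAs (branched-DNA multiplex), adjusted by two reference genes and the non-targeting median, then scored against the average KSR1 knockdown pattern as Pearson r and euclidean distance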. Scale: mean correlation with KSR1 profile: higher = expression change more like KSR1 knockdown; mean distance from KSR1 profile: higher = expression change less like KSR1 knockdown.
The deposit covers about 14,000 reagents; shown is a part drawn at random. 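Higher correlation or smaller distance means closer resemblance to KSR1 loss; control wells, including KSR1 knockdowns, recur on many plates.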 The numbers tell different reagents against one gene apart. Not all columns of the deposit are shown. The record does not give: the time to read-out.

target gene	pool no.	mean correlation with KSR1 profile	mean distance from KSR1 profile
RAB18 (RAB18, member RAS oncogene family)	1	0.175	2.1
DCAF17 (DDB1 and CUL4 associated factor 17)	1	0.103	3.24
ADRA2A (adrenoceptor alpha 2A)	1	0.801	2.63
SAG (S-antigen visual arrestin)	1	0.383	1.73
HRH3 (histamine receptor H3)	1	0.706	2.32
OR8G1 (olfactory receptor family 8 subfamily G member 1)	1	0.123	1.71
PDXK (pyridoxal kinase)	1	-0.139	2.23
PDXK (pyridoxal kinase)	2	0.636	1.85
PDXK (pyridoxal kinase)	3	0.432	2.31
AIF1 (allograft inflammatory factor 1)	1	-0.00261	2.23
RPS10 (ribosomal protein S10)	1	-0.305	2.51
CCL15 (C-C motif chemokine ligand 15)	1	0.0329	1.07
FXYD1 (FXYD domain containing ion transport regulator 1)	1	0.184	2.37
APOL5 (apolipoprotein L5)	1	0.534	1.46
PDE7B (phosphodiesterase 7B)	1	0.341	2.5
PARD3B (par-3 family cell polarity regulator beta)	1	0.234	1.26
SERINC3 (serine incorporator 3)	1	-0.566	1.71
SPATS2 (spermatogenesis associated serine rich 2)	1	-0.246	2.61
PAX4 (paired box 4)	1	0.138	1.52
TRNAU1AP (tRNA selenocysteine 1 associated protein 1)	1	-0.879	5.07
AZU1 (azurocidin 1)	1	-0.206	3.69
SNRPN (small nuclear ribonucleoprotein polypeptide N)	1	0.399	2.12
CASKIN2 (CASK interacting protein 2)	1	-0.175	1.67
KLRA1P (killer cell lectin like receptor A1, pseudogene)	1	0.485	1.03
ISL1 (ISL LIM homeobox 1)	1	-0.601	1.76
ZNF175 (zinc finger protein 175)	1	-0.128	1.49
TFAP2A (transcription factor AP-2 alpha)	1	0.32	1.18
SLC50A1	1	0.218	2.01
TAS2R16 (taste 2 receptor member 16)	1	0.712	1.22
F2 (coagulation factor II, thrombin)	1	-0.05	1.26
ECI1 (enoyl-CoA delta isomerase 1)	1	0.0703	2.83
KDM2A (lysine demethylase 2A)	1	0.545	1.11
PTGER3 (prostaglandin E receptor 3)	1	-0.577	4.04
ASB3 (ankyrin repeat and SOCS box containing 3)	1	-0.526	2.83
KLHL18 (kelch like family member 18)	1	-0.402	1.45
LINC00339 (long independently transcribed non-coding RNA 339)	1	-0.137	2.85
S100A8 (S100 calcium binding protein A8)	1	0.212	1.62
ENTREP1 (endosomal transmembrane epsin interactor 1)	1	-0.0867	3.01
CD46 (CD46 molecule)	1	-0.275	1.56
IFNA16 (interferon alpha 16)	1	-0.0849	3.57
BMP7 (bone morphogenetic protein 7)	1	-0.182	2.43
CASS4 (Cas scaffold protein family member 4)	1	0.164	2.12
SERTAD2 (SERTA domain containing 2)	1	0.529	1.38
ACSF2 (acyl-CoA synthetase family member 2)	1	0.666	1.33
PPP1R17 (protein phosphatase 1 regulatory subunit 17)	1	0.0703	2.71
NOC4L (nucleolar complex associated 4 homolog)	1	-0.758	2.35
HOXC8 (homeobox C8)	1	0.405	1.39
COX16 (cytochrome c oxidase assembly factor COX16)	1	-0.548	1.71
PMS2P5	1	0.374	1.29
COX6A1 (cytochrome c oxidase subunit 6A1)	1	-0.263	1.76

Already shown: entries from further up.
target gene	pool no.	mean correlation with KSR1 profile	mean distance from KSR1 profile
ASB3 (ankyrin repeat and SOCS box containing 3)	1	-0.526	2.83
KLHL18 (kelch like family member 18)	1	-0.402	1.45
LINC00339 (long independently transcribed non-coding RNA 339)	1	-0.137	2.85
